Values from PubChem BioAssay AID1224829 (NIAID, 2016).

Screen: 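Secondary check of hits that alter LPS-induced p65 translocation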 (follow-up of hits)
Cells: mouse RAW264.7 G9 macrophage reporter cells
Reagent: single siRNA against mouse genes, 100 nM
Duration: 2 days of siRNA knock-down, then 40 min of LPS before fixing
Challenge: LPS (Salmonella minnesota R595) at 10 ng/ml
Measurement: 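High-content images after 40 min LPS exposure; GFP-p65 nucleus to surrounding ring signal ratio, normalised to plate median and non-targeting control wells, expressed as z-score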
Scale: p65 translocation z-score: higher = more nuclear NF-kappaB p65 after LPS
Rule for the call: 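Active means the replicate-mean z-score lies beyond plus or minus 2, in either direction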
Calls: active = changed p65 translocation (either direction); inactive = no clear change
The whole screen tested about 3,800 reagents; shown is a part drawn at random. 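Calls cover raised and lowered translocation; gene median uses one vendor's three siRNAs; qiagen siRNAs acted more weakly than ambion siRNAs.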 Unmarked entries are inactive. Reagents against one gene are numbered here. Further read-outs or replicates are left out here. Reagent sequences are not shown.

Adamts7 #1, siRNA vendor or control pool ambion single siRNA
- p65 translocation z-score, replicate mean: 0.743
- p65 translocation z-score, replicate 1: 3.13

Adamts7 #2, siRNA vendor or control pool ambion single siRNA
- p65 translocation z-score, replicate mean: 0.828
- p65 translocation z-score, replicate 1: 1.78

Adamts7 #3, siRNA vendor or control pool ambion single siRNA
- p65 translocation z-score, replicate mean: -3.78 (active)
- p65 translocation z-score, replicate 1: -4.43

Adamts7 #4, siRNA vendor or control pool qiagen single siRNA
- p65 translocation z-score, replicate mean: 0.0723
- p65 translocation z-score, replicate 1: -0.303

Adamts7 #5, siRNA vendor or control pool qiagen single siRNA
- p65 translocation z-score, replicate mean: 0.291
- p65 translocation z-score, replicate 1: -0.0963

Adamts7 #6, siRNA vendor or control pool qiagen single siRNA
- p65 translocation z-score, replicate mean: -0.508
- p65 translocation z-score, replicate 1: 1.19

Etf1 #1, siRNA vendor or control pool ambion single siRNA
- p65 translocation z-score, replicate mean: -0.937
- p65 translocation z-score, replicate 1: 0.421

Etf1 #2, siRNA vendor or control pool ambion single siRNA
- p65 translocation z-score, replicate mean: -3.46 (active)
- p65 translocation z-score, replicate 1: -2.08

Etf1 #3, siRNA vendor or control pool ambion single siRNA
- p65 translocation z-score, replicate mean: -3.62 (active)
- p65 translocation z-score, replicate 1: -3

Etf1 #4, siRNA vendor or control pool qiagen single siRNA
- p65 translocation z-score, replicate mean: -0.502
- p65 translocation z-score, replicate 1: 0.00685

Etf1 #5, siRNA vendor or control pool qiagen single siRNA
- p65 translocation z-score, replicate mean: -1.94
- p65 translocation z-score, replicate 1: -1.11

Etf1 #6, siRNA vendor or control pool qiagen single siRNA
- p65 translocation z-score, replicate mean: 0.388
- p65 translocation z-score, replicate 1: 0.416

Ch25h #1, siRNA vendor or control pool ambion single siRNA
- p65 translocation z-score, replicate mean: -1.52
- p65 translocation z-score, replicate 1: -1.6

Ch25h #2, siRNA vendor or control pool ambion single siRNA
- p65 translocation z-score, replicate mean: -1.58
- p65 translocation z-score, replicate 1: -1.87

Ch25h #3, siRNA vendor or control pool ambion single siRNA
- p65 translocation z-score, replicate mean: -1.29
- p65 translocation z-score, replicate 1: -1.29

Ch25h #4, siRNA vendor or control pool qiagen single siRNA
- p65 translocation z-score, replicate mean: 2.06 (active)
- p65 translocation z-score, replicate 1: 0.824

Ch25h #5, siRNA vendor or control pool qiagen single siRNA
- p65 translocation z-score, replicate mean: 1.98
- p65 translocation z-score, replicate 1: 0.769

Ch25h #6, siRNA vendor or control pool qiagen single siRNA
- p65 translocation z-score, replicate mean: -1.09
- p65 translocation z-score, replicate 1: -1.15

Or52e15 #1, siRNA vendor or control pool ambion single siRNA
- p65 translocation z-score, replicate mean: 1.43
- p65 translocation z-score, replicate 1: 2.42

Or52e15 #2, siRNA vendor or control pool ambion single siRNA
- p65 translocation z-score, replicate mean: -3.66 (active)
- p65 translocation z-score, replicate 1: -3.65

Or52e15 #3, siRNA vendor or control pool ambion single siRNA
- p65 translocation z-score, replicate mean: -1.96
- p65 translocation z-score, replicate 1: -2.27

Or52e15 #4, siRNA vendor or control pool qiagen single siRNA
- p65 translocation z-score, replicate mean: 1.46
- p65 translocation z-score, replicate 1: 1.46

Or52e15 #5, siRNA vendor or control pool qiagen single siRNA
- p65 translocation z-score, replicate mean: 1.14
- p65 translocation z-score, replicate 1: 0.57

Or52e15 #6, siRNA vendor or control pool qiagen single siRNA
- p65 translocation z-score, replicate mean: -0.398
- p65 translocation z-score, replicate 1: -0.245

Moap1 #1, siRNA vendor or control pool ambion single siRNA
- p65 translocation z-score, replicate mean: -1.07
- p65 translocation z-score, replicate 1: -1.05

Moap1 #2, siRNA vendor or control pool ambion single siRNA
- p65 translocation z-score, replicate mean: 0.0133
- p65 translocation z-score, replicate 1: 0.257

Moap1 #3, siRNA vendor or control pool ambion single siRNA
- p65 translocation z-score, replicate mean: -2.53 (active)
- p65 translocation z-score, replicate 1: -2.48

Moap1 #4, siRNA vendor or control pool qiagen single siRNA
- p65 translocation z-score, replicate mean: -0.704
- p65 translocation z-score, replicate 1: -0.165

Moap1 #5, siRNA vendor or control pool qiagen single siRNA
- p65 translocation z-score, replicate mean: -0.117
- p65 translocation z-score, replicate 1: -0.534

Moap1 #6, siRNA vendor or control pool qiagen single siRNA
- p65 translocation z-score, replicate mean: -1.71
- p65 translocation z-score, replicate 1: -1.89

Ordered by “p65 translocation z-score, replicate mean” (lowest first): some entries from above
Moap1 #6, siRNA vendor or control pool qiagen single siRNA
- p65 translocation z-score, replicate mean: -1.71
- p65 translocation z-score, replicate 1: -1.89

Moap1 #4, siRNA vendor or control pool qiagen single siRNA
- p65 translocation z-score, replicate mean: -0.704
- p65 translocation z-score, replicate 1: -0.165

Moap1 #5, siRNA vendor or control pool qiagen single siRNA
- p65 translocation z-score, replicate mean: -0.117
- p65 translocation z-score, replicate 1: -0.534
